Results are given in words; binding and its absence hold for the method and conditions named. Binding seen in cells or lysates may run through a third protein. These calls come from enrichment with a bait or labelling near it, and not all partners need be listed.
Molecular target: FLAG-tagged FIP200 (not stated (a human plasmid, pMXs-IP-EGFP-hFIP200, is named)) (UniProt Q8TDY2)
Test: affinity purification with mass spectrometry; HEK293 cells stably expressing FLAG-tagged FIP200, TAP lysis buffer, anti-FLAG resin 16 h at 4 C, eluted with FLAG peptide; SAINT score cutoff 0.89; repeated twice

Sequences of proteins named here, by UniProt entry; tags and fusion partners are left off.
UniProt Q8TDY2: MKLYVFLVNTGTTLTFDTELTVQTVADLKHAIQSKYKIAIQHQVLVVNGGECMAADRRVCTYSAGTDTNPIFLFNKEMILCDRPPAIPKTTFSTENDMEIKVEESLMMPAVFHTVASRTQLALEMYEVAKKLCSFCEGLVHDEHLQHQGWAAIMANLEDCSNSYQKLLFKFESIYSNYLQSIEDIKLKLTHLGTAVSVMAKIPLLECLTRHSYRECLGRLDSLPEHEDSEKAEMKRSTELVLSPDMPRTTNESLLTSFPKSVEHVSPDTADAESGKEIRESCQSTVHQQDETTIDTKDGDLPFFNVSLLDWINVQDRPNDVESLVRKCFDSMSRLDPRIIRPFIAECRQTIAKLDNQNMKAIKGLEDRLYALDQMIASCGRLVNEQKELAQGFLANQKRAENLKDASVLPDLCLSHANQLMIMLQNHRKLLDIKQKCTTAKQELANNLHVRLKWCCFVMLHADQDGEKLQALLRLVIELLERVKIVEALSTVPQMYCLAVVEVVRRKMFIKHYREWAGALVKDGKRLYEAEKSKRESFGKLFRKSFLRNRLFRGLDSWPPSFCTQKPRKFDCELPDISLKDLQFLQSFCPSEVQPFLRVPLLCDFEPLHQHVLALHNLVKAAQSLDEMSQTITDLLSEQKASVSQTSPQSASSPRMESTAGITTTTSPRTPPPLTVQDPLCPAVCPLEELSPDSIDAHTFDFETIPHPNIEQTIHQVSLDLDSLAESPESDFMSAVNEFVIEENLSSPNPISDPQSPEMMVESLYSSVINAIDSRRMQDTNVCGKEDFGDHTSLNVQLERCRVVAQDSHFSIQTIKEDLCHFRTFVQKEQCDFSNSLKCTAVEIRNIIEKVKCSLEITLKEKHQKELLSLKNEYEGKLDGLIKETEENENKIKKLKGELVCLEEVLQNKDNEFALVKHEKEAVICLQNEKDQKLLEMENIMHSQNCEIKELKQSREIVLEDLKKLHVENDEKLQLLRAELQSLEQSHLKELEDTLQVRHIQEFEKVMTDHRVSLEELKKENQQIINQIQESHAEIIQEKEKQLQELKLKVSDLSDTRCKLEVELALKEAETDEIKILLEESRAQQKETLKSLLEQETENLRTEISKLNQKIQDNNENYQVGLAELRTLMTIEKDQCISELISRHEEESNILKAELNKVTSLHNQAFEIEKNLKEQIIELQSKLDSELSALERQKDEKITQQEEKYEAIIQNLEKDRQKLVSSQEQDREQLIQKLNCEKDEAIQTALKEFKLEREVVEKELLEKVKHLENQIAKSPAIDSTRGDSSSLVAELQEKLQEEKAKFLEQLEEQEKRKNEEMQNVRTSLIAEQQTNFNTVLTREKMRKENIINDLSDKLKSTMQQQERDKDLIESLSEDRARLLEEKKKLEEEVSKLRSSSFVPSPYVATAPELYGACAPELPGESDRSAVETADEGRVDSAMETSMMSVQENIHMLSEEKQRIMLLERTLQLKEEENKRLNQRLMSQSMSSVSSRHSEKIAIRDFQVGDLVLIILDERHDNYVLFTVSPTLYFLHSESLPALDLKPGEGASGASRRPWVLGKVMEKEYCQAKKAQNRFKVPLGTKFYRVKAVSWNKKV
UniProt O95786: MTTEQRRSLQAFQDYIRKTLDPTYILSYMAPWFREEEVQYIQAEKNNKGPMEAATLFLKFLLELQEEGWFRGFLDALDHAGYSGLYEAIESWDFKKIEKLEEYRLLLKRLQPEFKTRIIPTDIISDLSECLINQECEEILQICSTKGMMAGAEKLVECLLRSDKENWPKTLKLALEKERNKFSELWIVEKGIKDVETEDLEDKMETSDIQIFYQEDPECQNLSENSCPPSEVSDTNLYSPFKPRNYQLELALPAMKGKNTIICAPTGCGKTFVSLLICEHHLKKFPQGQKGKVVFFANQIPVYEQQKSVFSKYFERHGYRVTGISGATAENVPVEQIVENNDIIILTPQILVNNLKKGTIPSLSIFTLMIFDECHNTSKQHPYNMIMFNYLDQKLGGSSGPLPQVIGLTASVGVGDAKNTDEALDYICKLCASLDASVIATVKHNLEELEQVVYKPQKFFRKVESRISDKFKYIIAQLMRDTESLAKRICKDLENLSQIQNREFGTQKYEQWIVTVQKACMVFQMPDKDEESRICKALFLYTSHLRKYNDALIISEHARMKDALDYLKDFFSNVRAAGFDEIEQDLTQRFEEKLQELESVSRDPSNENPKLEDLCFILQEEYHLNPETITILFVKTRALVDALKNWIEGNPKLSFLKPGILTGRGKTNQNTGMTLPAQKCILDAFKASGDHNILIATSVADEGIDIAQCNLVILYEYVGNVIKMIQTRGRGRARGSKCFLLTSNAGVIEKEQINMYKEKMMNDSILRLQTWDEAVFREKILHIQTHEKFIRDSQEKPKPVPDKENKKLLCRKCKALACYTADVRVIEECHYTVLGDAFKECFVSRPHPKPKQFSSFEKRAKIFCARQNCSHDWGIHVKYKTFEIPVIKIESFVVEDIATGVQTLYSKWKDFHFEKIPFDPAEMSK

binding: binds
Substance: endogenous RIG-I of HEK293 cells (from UniProt O95786 1-925)
